Experimental data: the supplement of paper PMC4604168 (melanoma cell lines)
The other results are listed elsewhere or left out. Many values rest on one well or one pass, so single values are uncertain.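 Imaging used 1,536-well plates; nuclei positive for cleaved PARP by antibody were divided by total DNA-stained nuclei to yield the apoptosis fraction. Doses for screening kept most cells viable, and cell lines differ markedly in resting and induced cleaved-PARP levels.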

system: CBRC008 (line from a melanoma biopsy); assay: cleaved PARP positive nuclei fraction relative to DMSO control; melanoma cells; higher = more apoptosis; settings: library dose: low library concentration; 72 h

SMILES | cleaved PARP positive nuclei fraction [%]
Cn1cc(C2=C(c3cn(C4CCN(Cc5ccccn5)CC4)c4ccccc34)C(=O)NC2=O)c2ccccc21 [Enzastaurin] + C[C@]1(c2nc3c(C(N)=O)cccc3[nH]2)CCCN1 [Veliparib] (first compound 0.8 µM, partner dose 1.4 µM) | 45.2
Cc1ccc(Nc2nccc(N(C)c3ccc4c(C)n(C)nc4c3)n2)cc1S(N)(=O)=O [Pazopanib] + N.N.[Cl][Pt][Cl] [cisplatin] (first compound 0.4 µM, partner dose 1.6 µM) | 161
C[As](C)SC[C@H](NC(=O)CC[C@H](N)C(=O)O)C(=O)NCC(=O)O [Darinaparsin] + Cn1c(Nc2ccc(C(F)(F)F)cc2)nc2cc(Oc3ccnc(-c4ncc(C(F)(F)F)[nH]4)c3)ccc21 [CHIR265] (first compound 0.4 µM, partner dose 0.08 µM) | 104
CC[C@]1(O)C[C@H]2CN(CCc3c([nH]c4ccccc34)[C@@](C(=O)OC)(c3cc4c(cc3OC)N(C=O)[C@H]3[C@@](O)(C(=O)OC)[C@H](OC(C)=O)[C@]5(CC)C=CCN6CC[C@]43[C@@H]65)C2)C1 [vincristine] + N.N.[Cl][Pt][Cl] [cisplatin] (first compound 0.0001 µM, partner dose 1.6 µM) | 87.6
O=C(/C=C/c1cccnc1)NCCCCC1CCN(C(=O)c2ccccc2)CC1 + N.N.[Cl][Pt][Cl] [cisplatin] (first compound 0.01 µM, partner dose 1.6 µM) | 2320
Nc1ncn([C@H]2C[C@H](O)[C@@H](CO)O2)c(=O)n1 [decitabine] + C[As](C)SC[C@H](NC(=O)CC[C@H](N)C(=O)O)C(=O)NCC(=O)O [Darinaparsin] (first compound 0.1 µM, partner dose 0.4 µM) | 101
C#Cc1cccc(Nc2ncnc3cc(OCCOC)c(OCCOC)cc23)c1 [erlotinib] + C[As](C)SC[C@H](NC(=O)CC[C@H](N)C(=O)O)C(=O)NCC(=O)O [Darinaparsin] (first compound 0.8 µM, partner dose 0.4 µM) | 193
Cn1cc(C2=C(c3cn(C4CCN(Cc5ccccn5)CC4)c4ccccc34)C(=O)NC2=O)c2ccccc21 [Enzastaurin] + CC(=O)c1c(C)c2cnc(Nc3ccc(N4CCNCC4)cn3)nc2n(C2CCCC2)c1=O [palbociclib] (first compound 0.8 µM, partner dose 0.04 µM) | 56.8
N.N.[Cl][Pt][Cl] [cisplatin] + O=C(O)[C@@H]1[O][Sb](=[O])([O][Sb]2(=[O])[O][C@H]([C@H](O)CO)[C@H](O)[C@H](C(=O)O)[O]2)[O][C@H]([C@H](O)CO)[C@@H]1O [stibogluconate] (first compound 1.6 µM, partner dose 2 µM) | 162
Cc1cn(-c2cc(NC(=O)c3ccc(C)c(Nc4nccc(-c5cccnc5)n4)c3)cc(C(F)(F)F)c2)cn1 [nilotinib] + C[C@]12O[C@H](C[C@]1(O)CO)n1c3ccccc3c3c4c(c5c6ccccc6n2c5c31)CNC4=O [Lestaurtinib] (first compound 0.2 µM, partner dose 0.004 µM) | 51.2
CO[C@H]1C[C@@H]2CC[C@@H](C)[C@@](O)(O2)C(=O)C(=O)N2CCCC[C@H]2C(=O)O[C@H]([C@H](C)C[C@@H]2CC[C@@H](OCCO)[C@H](OC)C2)CC(=O)[C@H](C)/C=C(\C)[C@@H](O)[C@@H](OC)C(=O)[C@H](C)C[C@H](C)/C=C/C=C/C=C/1C [everolimus] + C[As](C)SC[C@H](NC(=O)CC[C@H](N)C(=O)O)C(=O)NCC(=O)O [Darinaparsin] (first compound 0.02 µM, partner dose 0.4 µM) | 177
Cn1cc(C2=C(c3cn(C4CCN(Cc5ccccn5)CC4)c4ccccc34)C(=O)NC2=O)c2ccccc21 [Enzastaurin] + C#Cc1cccc(Nc2ncnc3cc(OCCOC)c(OCCOC)cc23)c1 [erlotinib] (first compound 0.8 µM, partner dose 0.8 µM) | 55.9
C[C@]12O[C@H](C[C@]1(O)CO)n1c3ccccc3c3c4c(c5c6ccccc6n2c5c31)CNC4=O [Lestaurtinib] + CC(=O)O[C@@]12CO[C@@H]1C[C@H](O)[C@@]1(C)C(=O)[C@H](O)C3=C(C)[C@@H](OC(=O)[C@H](O)[C@@H](NC(=O)OC(C)(C)C)c4ccccc4)C[C@@](O)([C@@H](OC(=O)c4ccccc4)[C@H]21)C3(C)C [Docetaxel] (first compound 0.004 µM, partner dose 0.0001 µM) | 451
C[C@]12O[C@H](C[C@]1(O)CO)n1c3ccccc3c3c4c(c5c6ccccc6n2c5c31)CNC4=O [Lestaurtinib] + CS(=O)(=O)c1ccc(C(=O)Nc2ccc(Cl)c(-c3ccccn3)c2)c(Cl)c1 [vismodegib] (first compound 0.004 µM, partner dose 1 µM) | 155
N.N.[Cl][Pt][Cl] [cisplatin] + C=CCNC1=C2C[C@@H](C)C[C@H](OC)[C@H](O)[C@@H](C)/C=C(\C)[C@H](OC(N)=O)[C@@H](OC)/C=C\C=C(/C)C(=O)NC(=CC1=O)C2=O [Tanespimycin] (first compound 1.6 µM, partner dose 0.002 µM) | 95.8
O=C(/C=C/c1cccnc1)NCCCCC1CCN(C(=O)c2ccccc2)CC1 + C[C@]12O[C@H](C[C@]1(O)CO)n1c3ccccc3c3c4c(c5c6ccccc6n2c5c31)CNC4=O [Lestaurtinib] (first compound 0.01 µM, partner dose 0.004 µM) | 2940
N.N.[Cl][Pt][Cl] [cisplatin] + OCc1c[nH]c2ccccc12 [Indole-3-carbinol] (first compound 1.6 µM, partner dose 0.8 µM) | 231
Cn1cc(C2=C(c3cn(C4CCN(Cc5ccccn5)CC4)c4ccccc34)C(=O)NC2=O)c2ccccc21 [Enzastaurin] + CO[C@H]1C[C@@H]2CC[C@@H](C)[C@@](O)(O2)C(=O)C(=O)N2CCCC[C@H]2C(=O)O[C@H]([C@H](C)C[C@@H]2CC[C@@H](OCCO)[C@H](OC)C2)CC(=O)[C@H](C)/C=C(\C)[C@@H](O)[C@@H](OC)C(=O)[C@H](C)C[C@H](C)/C=C/C=C/C=C/1C [everolimus] (first compound 0.8 µM, partner dose 0.02 µM) | 137
O=C(/C=C/c1cccnc1)NCCCCC1CCN(C(=O)c2ccccc2)CC1 + C[As](C)SC[C@H](NC(=O)CC[C@H](N)C(=O)O)C(=O)NCC(=O)O [Darinaparsin] (first compound 0.01 µM, partner dose 0.4 µM) | 3680
OCc1c[nH]c2ccccc12 [Indole-3-carbinol] + C[As](C)SC[C@H](NC(=O)CC[C@H](N)C(=O)O)C(=O)NCC(=O)O [Darinaparsin] (first compound 0.8 µM, partner dose 0.4 µM) | 64.6
Nc1ccn([C@@H]2O[C@H](CO)[C@@H](O)C2(F)F)c(=O)n1 [gemcitabine] + C[As](C)SC[C@H](NC(=O)CC[C@H](N)C(=O)O)C(=O)NCC(=O)O [Darinaparsin] (first compound 0.0004 µM, partner dose 0.4 µM) | 85.5
Cn1c(=O)n(-c2ccc(C(C)(C)C#N)cc2)c2c3cc(-c4cnc5ccccc5c4)ccc3ncc21 + C[As](C)SC[C@H](NC(=O)CC[C@H](N)C(=O)O)C(=O)NCC(=O)O [Darinaparsin] (first compound 0.004 µM, partner dose 0.4 µM) | 101
N.N.[Cl][Pt][Cl] [cisplatin] + Cc1nc(Nc2ncc(C(=O)Nc3c(C)cccc3Cl)s2)cc(N2CCN(CCO)CC2)n1 [dasatanib] (first compound 1.6 µM, partner dose 0.004 µM) | 80.8
N.N.[Cl][Pt][Cl] [cisplatin] + C[C@@H](Oc1cc(-c2cnn(C3CCNCC3)c2)cnc1N)c1c(Cl)ccc(F)c1Cl [Crizotinib] (first compound 1.6 µM, partner dose 0.2 µM) | 232
Cn1cc(C2=C(c3cn(C4CCN(Cc5ccccn5)CC4)c4ccccc34)C(=O)NC2=O)c2ccccc21 [Enzastaurin] + O=C(O)[C@@H]1[O][Sb](=[O])([O][Sb]2(=[O])[O][C@H]([C@H](O)CO)[C@H](O)[C@H](C(=O)O)[O]2)[O][C@H]([C@H](O)CO)[C@@H]1O [stibogluconate] (first compound 0.8 µM, partner dose 2 µM) | 40.6
C[C@]12O[C@H](C[C@]1(O)CO)n1c3ccccc3c3c4c(c5c6ccccc6n2c5c31)CNC4=O [Lestaurtinib] + Nc1ccn([C@@H]2O[C@H](CO)[C@@H](O)C2(F)F)c(=O)n1 [gemcitabine] (first compound 0.004 µM, partner dose 0.0004 µM) | 42.3
N.N.[Cl][Pt][Cl] [cisplatin] + CN1CCN(c2ccc3nc(-c4c(N)c5c(F)cccc5[nH]c4=O)[nH]c3c2)CC1 [Dovitinib] (first compound 1.6 µM, partner dose 0.1 µM) | 77.9
NC1(c2ccc(-c3nc4ccn5c(=O)[nH]nc5c4cc3-c3ccccc3)cc2)CCC1 + C[As](C)SC[C@H](NC(=O)CC[C@H](N)C(=O)O)C(=O)NCC(=O)O [Darinaparsin] (first compound 0.4 µM, partner dose 0.4 µM) | 115

2 successive entries from above:
SMILES | cleaved PARP positive nuclei fraction [%]
C[C@]12O[C@H](C[C@]1(O)CO)n1c3ccccc3c3c4c(c5c6ccccc6n2c5c31)CNC4=O [Lestaurtinib] + CS(=O)(=O)c1ccc(C(=O)Nc2ccc(Cl)c(-c3ccccn3)c2)c(Cl)c1 [vismodegib] (first compound 0.004 µM, partner dose 1 µM) | 155
N.N.[Cl][Pt][Cl] [cisplatin] + C=CCNC1=C2C[C@@H](C)C[C@H](OC)[C@H](O)[C@@H](C)/C=C(\C)[C@H](OC(N)=O)[C@@H](OC)/C=C\C=C(/C)C(=O)NC(=CC1=O)C2=O [Tanespimycin] (first compound 1.6 µM, partner dose 0.002 µM) | 95.8
